Measured values: paper PMC7704642
These are yes or no findings as the source states them, for the method shown. Binding can be weak; no strength is given.

By UniProt entry, the sequences of proteins in these tests, tags left out. Where a name states a change or a piece, a line headed by the entry shows the natural chain unless it says otherwise.
UniProt Q5JIY4: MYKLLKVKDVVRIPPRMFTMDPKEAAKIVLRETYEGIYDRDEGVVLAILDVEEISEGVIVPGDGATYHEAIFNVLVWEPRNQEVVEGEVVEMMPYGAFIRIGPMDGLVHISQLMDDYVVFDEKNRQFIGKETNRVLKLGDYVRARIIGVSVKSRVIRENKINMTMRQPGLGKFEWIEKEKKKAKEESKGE

How the values were obtained:
[1] = biological target: RpoE, stalk subunit of Thermococcus kodakarensis RNA polymerase (Thermococcus kodakarensis) (UniProt Q5JIY4); test: cryo-EM structure; RNAP–TFEα binary complex: 3 nmole RNAP mixed with 5-fold molar excess of TFEα at room temperature for 1 h, Superose 6 in 10 mM Tris-HCl (pH 8.0), 400 mM NaCl, 5 mM DTT, 1% glycerol, 0.1 mM EDTA; peak fraction used for EM; both purified
[2] = biological target: RpoB, second largest subunit of Thermococcus kodakarensis RNA polymerase (Thermococcus kodakarensis); test: cryo-EM structure; RNAP–TFEα–DNA ternary complex: 3 nmol RNAP–TFEα binary complex mixed with 3-fold molar excess of annealed gdh promoter fork-junction DNA at room temperature for 30 min, Superose 6 in 10 mM Tris-HCl (pH 8.0), 400 mM NaCl, 5 mM DTT, 1% glycerol, 0.1 mM EDTA; both purified
[3] = biological target: RpoE, stalk subunit of Thermococcus kodakarensis RNA polymerase (Thermococcus kodakarensis) (UniProt Q5JIY4); test: as above

Measured: binding

B1: Thermococcus kodakarensis TFEα (protein, UniProt Q5JDD5 1-185)
chain: MAKRKNKELLEIAQEIGGEEAVEVVKALEKMKEATDEELAEATGIRVNTVRRILYMLNDEGLADFKRIRDPETGWYYYYWRLETKKLPEIIRSRKMAELKKLKEMLEEETSEIYYWCGTEGHPKLTFDEAMEYEFQCPICGKMLMQYDNTHIIEELKRRIEELEIELGLKKKPRKTSKKKKSRSE
binds: all assays above
